Measured values as given in PMC6920372.
These are yes or no findings as the source states them, for the method shown. Binding seen in cells or lysates may run through a third protein. Some binding calls cover weakened binding; strength is not graded here. Where a sequence is shown, tags or fusion partners need not be part of it.

Chains of the proteins cited; added tags and fusions are not shown.
UniProt Q14457: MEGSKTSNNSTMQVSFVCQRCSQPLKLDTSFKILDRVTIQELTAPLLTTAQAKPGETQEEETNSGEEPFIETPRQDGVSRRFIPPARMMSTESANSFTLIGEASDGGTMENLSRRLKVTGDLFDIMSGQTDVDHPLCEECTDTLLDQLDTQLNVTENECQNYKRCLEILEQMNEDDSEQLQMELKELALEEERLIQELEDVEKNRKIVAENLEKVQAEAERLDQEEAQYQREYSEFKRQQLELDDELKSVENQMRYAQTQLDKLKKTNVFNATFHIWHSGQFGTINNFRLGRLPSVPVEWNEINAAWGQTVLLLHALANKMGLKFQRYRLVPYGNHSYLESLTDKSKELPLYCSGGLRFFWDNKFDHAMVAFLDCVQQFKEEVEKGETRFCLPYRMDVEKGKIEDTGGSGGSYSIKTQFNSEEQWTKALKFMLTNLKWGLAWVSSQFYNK
UniProt P31749: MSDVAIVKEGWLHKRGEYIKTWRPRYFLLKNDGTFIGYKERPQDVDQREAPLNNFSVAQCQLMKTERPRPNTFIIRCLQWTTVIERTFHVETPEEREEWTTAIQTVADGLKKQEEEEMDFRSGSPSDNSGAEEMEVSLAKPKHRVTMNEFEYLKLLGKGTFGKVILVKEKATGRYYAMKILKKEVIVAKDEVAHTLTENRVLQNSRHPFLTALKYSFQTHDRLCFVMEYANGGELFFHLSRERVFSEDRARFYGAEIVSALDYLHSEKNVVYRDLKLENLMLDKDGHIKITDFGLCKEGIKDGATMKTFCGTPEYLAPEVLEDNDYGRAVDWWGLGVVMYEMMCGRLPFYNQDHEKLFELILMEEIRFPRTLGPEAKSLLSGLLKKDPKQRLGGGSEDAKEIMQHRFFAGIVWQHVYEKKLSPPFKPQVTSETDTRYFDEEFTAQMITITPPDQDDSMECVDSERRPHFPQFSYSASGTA
UniProt O60346: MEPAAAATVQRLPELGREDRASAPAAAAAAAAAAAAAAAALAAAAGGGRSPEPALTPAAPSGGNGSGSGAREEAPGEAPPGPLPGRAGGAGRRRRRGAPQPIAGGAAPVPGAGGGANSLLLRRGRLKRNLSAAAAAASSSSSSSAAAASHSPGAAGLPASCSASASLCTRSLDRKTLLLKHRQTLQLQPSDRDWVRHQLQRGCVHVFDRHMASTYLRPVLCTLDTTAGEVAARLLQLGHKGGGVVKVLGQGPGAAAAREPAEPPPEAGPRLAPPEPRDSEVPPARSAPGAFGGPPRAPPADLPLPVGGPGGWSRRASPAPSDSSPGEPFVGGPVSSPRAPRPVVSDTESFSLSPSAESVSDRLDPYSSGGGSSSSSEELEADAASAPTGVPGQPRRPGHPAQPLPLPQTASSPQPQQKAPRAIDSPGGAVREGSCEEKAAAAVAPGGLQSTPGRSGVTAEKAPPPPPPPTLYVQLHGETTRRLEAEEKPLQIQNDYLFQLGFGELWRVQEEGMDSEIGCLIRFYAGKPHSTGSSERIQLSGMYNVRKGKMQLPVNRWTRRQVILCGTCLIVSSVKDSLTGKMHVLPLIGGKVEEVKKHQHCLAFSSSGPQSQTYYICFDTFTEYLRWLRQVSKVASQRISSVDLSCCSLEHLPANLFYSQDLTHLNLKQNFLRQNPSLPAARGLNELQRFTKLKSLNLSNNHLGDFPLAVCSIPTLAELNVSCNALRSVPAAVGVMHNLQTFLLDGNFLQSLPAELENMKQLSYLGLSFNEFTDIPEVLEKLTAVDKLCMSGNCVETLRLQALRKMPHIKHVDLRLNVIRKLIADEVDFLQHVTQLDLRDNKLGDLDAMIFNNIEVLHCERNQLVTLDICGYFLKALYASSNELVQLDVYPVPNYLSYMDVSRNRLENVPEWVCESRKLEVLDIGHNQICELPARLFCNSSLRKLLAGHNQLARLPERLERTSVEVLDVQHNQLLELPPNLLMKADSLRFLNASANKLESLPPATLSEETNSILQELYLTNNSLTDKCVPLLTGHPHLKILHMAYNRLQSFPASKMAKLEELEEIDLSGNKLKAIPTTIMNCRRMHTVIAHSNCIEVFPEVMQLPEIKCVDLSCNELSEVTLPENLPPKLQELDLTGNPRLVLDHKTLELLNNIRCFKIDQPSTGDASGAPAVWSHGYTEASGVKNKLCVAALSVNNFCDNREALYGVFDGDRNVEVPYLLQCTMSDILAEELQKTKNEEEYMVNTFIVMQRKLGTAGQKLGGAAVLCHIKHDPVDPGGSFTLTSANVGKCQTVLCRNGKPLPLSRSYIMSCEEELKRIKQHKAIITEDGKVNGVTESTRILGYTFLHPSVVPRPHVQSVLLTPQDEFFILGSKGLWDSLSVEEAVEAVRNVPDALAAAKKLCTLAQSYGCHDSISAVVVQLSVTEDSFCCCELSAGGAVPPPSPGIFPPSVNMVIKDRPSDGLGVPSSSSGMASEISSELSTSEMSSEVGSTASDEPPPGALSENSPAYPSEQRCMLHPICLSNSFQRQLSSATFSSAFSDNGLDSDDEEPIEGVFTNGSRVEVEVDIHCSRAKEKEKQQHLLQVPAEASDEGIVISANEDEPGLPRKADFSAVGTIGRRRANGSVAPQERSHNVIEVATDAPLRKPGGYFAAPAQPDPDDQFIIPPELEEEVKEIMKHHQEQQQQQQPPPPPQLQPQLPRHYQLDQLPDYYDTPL

T1: FKBP51-Flag (UniProt Q13451)
T1 sequence: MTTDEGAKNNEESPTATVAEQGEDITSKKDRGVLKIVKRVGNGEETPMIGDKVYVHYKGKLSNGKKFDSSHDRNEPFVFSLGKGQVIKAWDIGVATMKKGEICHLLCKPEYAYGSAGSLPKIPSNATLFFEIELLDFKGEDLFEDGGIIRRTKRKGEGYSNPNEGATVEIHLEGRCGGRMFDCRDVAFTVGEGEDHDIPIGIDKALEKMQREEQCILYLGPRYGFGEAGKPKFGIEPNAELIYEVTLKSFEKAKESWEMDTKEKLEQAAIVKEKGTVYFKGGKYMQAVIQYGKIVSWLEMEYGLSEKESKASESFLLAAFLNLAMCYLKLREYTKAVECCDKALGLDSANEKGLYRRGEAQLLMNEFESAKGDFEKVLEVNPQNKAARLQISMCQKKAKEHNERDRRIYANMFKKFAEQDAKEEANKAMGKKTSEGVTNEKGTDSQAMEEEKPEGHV

T2: FK506 binding protein (FKBP)51 (human (endogenous in HEK293)) (UniProt Q13451)
T2 sequence: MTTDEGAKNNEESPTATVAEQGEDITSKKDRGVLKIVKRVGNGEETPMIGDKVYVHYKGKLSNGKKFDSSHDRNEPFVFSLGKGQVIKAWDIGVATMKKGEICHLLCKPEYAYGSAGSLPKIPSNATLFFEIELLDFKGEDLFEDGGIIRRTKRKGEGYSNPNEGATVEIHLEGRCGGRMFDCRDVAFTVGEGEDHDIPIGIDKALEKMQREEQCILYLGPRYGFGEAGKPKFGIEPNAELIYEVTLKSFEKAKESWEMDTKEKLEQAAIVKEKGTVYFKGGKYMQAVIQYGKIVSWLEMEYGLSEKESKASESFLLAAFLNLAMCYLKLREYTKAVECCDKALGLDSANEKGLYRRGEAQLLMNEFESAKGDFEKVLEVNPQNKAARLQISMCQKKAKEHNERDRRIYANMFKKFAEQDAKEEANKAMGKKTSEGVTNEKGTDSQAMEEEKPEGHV


Assays:
Experiment in all cases: co-IP
FKBP51-Flag = target: T1, FKBP51-Flag
[1] = target: T2, FK506 binding protein (FKBP)51 (human (endogenous in HEK293))
[2] = target: Beclin1 (BECN1) (human (endogenous in HEK293)) (UniProt Q14457)

Molecule	binding (FKBP51-Flag)	binding [1]	binding [2]
AKT1 (from UniProt P31749 1-480) (enzyme)	binds	–	–
PHLPP (from UniProt O60346 1-1717) (enzyme)	binds	–	–
FLAG-HA-USP36 (protein, UniProt Q9P275 1-1123) MPIVDKLKEALKPGRKDSADDGELGKLLASSAKKVLLQKIEFEPASKSFSYQLEALKSKYVLLNPKTEGASRHKSGDDPPARRQGSEHTYESCGDGVPAPQKVLFPTERLSLRWERVFRVGAGLHNLGNTCFLNATIQCLTYTPPLANYLLSKEHARSCHQGSFCMLCVMQNHIVQAFANSGNAIKPVSFIRDLKKIARHFRFGNQEDAHEFLRYTIDAMQKACLNGCAKLDRQTQATTLVHQIFGGYLRSRVKCSVCKSVSDTYDPYLDVALEIRQAANIVRALELFVKADVLSGENAYMCAKCKKKVPASKRFTIHRTSNVLTLSLKRFANFSGGKITKDVGYPEFLNIRPYMSQNNGDPVMYGLYAVLVHSGYSCHAGHYYCYVKASNGQWYQMNDSLVHSSNVKVVLNQQAYVLFYLRIPGSKKSPEGLISRTGSSSLPGRPSVIPDHSKKNIGNGIISSPLTGKRQDSGTMKKPHTTEEIGVPISRNGSTLGLKSQNGCIPPKLPSGSPSPKLSQTPTHMPTILDDPGKKVKKPAPPQHFSPRTAQGLPGTSNSNSSRSGSQRQGSWDSRDVVLSTSPKLLATATANGHGLKGNDESAGLDRRGSSSSSPEHSASSDSTKAPQTPRSGAAHLCDSQETNCSTAGHSKTPPSGADSKTVKLKSPVLSNTTTEPASTMSPPPAKKLALSAKKASTLWRATGNDLRPPPPSPSSDLTHPMKTSHPVVASTWPVHRARAVSPAPQSSSRLQPPFSPHPTLLSSTPKPPGTSEPRSCSSISTALPQVNEDLVSLPHQLPEASEPPQSPSEKRKKTFVGEPQRLGSETRLPQHIREATAAPHGKRKRKKKKRPEDTAASALQEGQTQRQPGSPMYRREGQAQLPAVRRQEDGTQPQVNGQQVGCVTDGHHASSRKRRRKGAEGLGEEGGLHQDPLRHSCSPMGDGDPEAMEESPRKKKKKKRKQETQRAVEEDGHLKCPRSAKPQDAVVPESSSCAPSANGWCPGDRMGLSQAPPVSWNGERESDVVQELLKYSSDKAYGRKVLTWDGKMSAVSQDAIEDSRQARTETVVDDWDEEFDRGKEKKIKKFKREKRRNFNAFQKLQTRRNFWSVTHPAKAASLSYRR	–	binds	no binding
